Where “and” joins values, the source holds several entries; their conditions need not be identical. Equal entries are not always repeated. The list shows a part of the results. The main result of the screen is listed elsewhere. These columns were measured beside it and carry no call. The list favours compounds with an active or inconclusive main result. The note in brackets gives the kind of curve behind each potency; many fits are weak.
Test: IkB Signaling
Conditions: ABC-DLBCL IkBa-CBG/CBR dual luciferase ratio (green luciferase fused to IkBa over red control in OCI-Ly3 lymphoma cells), 4 h
Summary of the method: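 In this assay, an IκBα–CBG68 fusion accumulates when IKK-driven degradation is blocked; native CBR normalizes for cell number. OCI-Ly3 cells were treated 4 h with compound and doxycycline, then green and red light read after Chroma-Glo addition.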

[1] = measured here: control luc red channel unless noted

SMILES: CCCCOC(=O)c1ccc(NC(=O)c2cc(-c3ccccc3)on2)cc1
- AC50 [1]: 0.0794 µM [falling, full curve]

SMILES: CC(C)c1ccc2occ(CC(=O)N(Cc3ccc(F)cc3)C3CCS(=O)(=O)C3)c2c1 (centres undefined)
- AC50 [1]: 15.8 µM [falling, partial curve]

SMILES: CC(=O)c1ccc(N2CCN(C(=O)Nc3ccc(C(C)C)cc3)CC2)cc1
- AC50 [1]: 15.8 µM [falling, partial curve]

SMILES: Cc1cc(N)n2ncc(-c3ccccc3)c2n1
- AC50 [1]: 12.6 µM [falling, partial curve]

SMILES: Cn1c2ccccc2c2cnn(CC(=O)NCCCN3CCN(c4ccccc4F)CC3)c(=O)c21
- AC50 [1]: 10 µM [falling, partial curve]

SMILES: COc1ccc(NC(=O)c2ccco2)cc1NC(=O)c1c(OC)cccc1OC
- AC50 [1]: 31.6 µM [falling, single point]

SMILES: CC1CCCCN1C(=O)CCS(=O)(=O)c1cc2c(cc1Cl)NC(=O)CO2 (centres undefined)
- AC50 [1]: 39.8 µM [falling, single point]

SMILES: Cc1cccc(C(=O)N2CCc3cc(CNS(=O)(=O)c4ccc(F)c(Cl)c4)ccc32)c1
- AC50 [1]: 3.16 µM [falling, partial curve]

SMILES: CCC(=O)N1CCc2cc(S(=O)(=O)Nc3cc(C)ccc3OC)ccc21
- AC50 [1]: 12.6 µM [falling, partial curve]

SMILES: Cc1cc(C)cc(NC(=O)c2cc(S(=O)(=O)N3CCc4ccccc43)cn2C)c1
- AC50 [1]: 15.8 µM [falling, partial curve]

SMILES: COc1ccccc1CNC(=O)c1ccc2c(c1)N(Cc1c(F)cccc1Cl)C(=O)CS2
- AC50 [1]: 6.31 µM [falling, full curve, poor fit]

SMILES: COc1cccc(NC(=O)Cn2c(=O)n(CCCCC(=O)NCc3ccccc3Cl)c(=O)c3ccccc32)c1
- AC50 [1]: 10 µM [falling, partial curve]

SMILES: CC(C)NC(=O)C1(O)c2ccccc2NC(=O)N1c1ccc(Cl)c(Cl)c1 (centres undefined)
- AC50 [1]: 12.6 µM [falling, partial curve]

SMILES: O=C(CSc1ncc(S(=O)(=O)c2ccc(Br)cc2)c(=O)[nH]1)Nc1ccc2c(c1)OCCO2
- AC50 [1]: 15.8 µM [falling, partial curve]

SMILES: CC1CCN(C(=O)CSc2nc3ccccc3nc2Cc2ccccc2)CC1
- AC50 [1]: 31.6 µM [falling, partial curve]

SMILES: CCOc1ccccc1N1CCN(S(=O)(=O)c2ccc(C3CCCCC3)cc2)CC1
- AC50 [1]: 25.1 µM [falling, partial curve]

SMILES: Cc1ccc(C(NC(=O)N2CCOCC2)=C(Cl)Cl)cc1F
- AC50 [1]: 31.6 µM [rising, single point] [measured here: IkB-luc green channel]

SMILES: CCOC(=O)c1c(S(=O)(=O)N2CCC(C(=O)Nc3ccc(F)cc3F)CC2)c(C)n(C)c1C
- AC50 [1]: 1 µM [falling, single point]

SMILES: COc1ccc(CNC(=O)Cc2c(C)c3cc4c(C)coc4c(C)c3oc2=O)cc1OC
- AC50 [1]: 31.6 µM [falling, single point]

SMILES: COc1ccc(-n2cc(C(=O)Oc3cc(C)cc(C)c3)c3ccccc3c2=O)cc1
- AC50 [1]: 0.00631 µM [falling, full curve, poor fit]

SMILES: COc1cccc(NC(=O)Cn2cc(C(=O)c3ccco3)c3ccccc32)c1
- AC50 [1]: 12.6 µM [falling, partial curve]

SMILES: Cc1cccc(NC(=O)C2CCN(c3cnccn3)CC2)c1
- AC50 [1]: 39.8 µM [falling, single point]

SMILES: COc1ccc(CC(=O)Nc2ccc3nc(N4CCCCC4)cc(C)c3c2)cc1
- AC50 [1]: 25.1 µM [falling, single point]

SMILES: Cc1ccc(CNC(=O)c2cc3c(s2)-c2c(C)cccc2OC3)cc1
- AC50 [1]: 2.51 µM [falling, full curve, poor fit]

SMILES: COc1ccc2c(c1)c1c(c(=O)n(Cc3ccccc3)c(=O)n1CC(=O)NCc1ccccc1)n2C
- AC50 [1]: 39.8 µM [falling, single point]

SMILES: CCOCCCNC(=O)c1ccc(-n2c(-c3ccccc3)cc3c2CCCCC3)cc1
- AC50 [1]: 12.6 µM [falling, partial curve]

SMILES: Oc1ccc(NCc2ccc(OCc3ccccc3)cc2)cc1
- AC50 [1]: 39.8 µM [falling, single point]

SMILES: Cc1cc(=O)oc2cc(OCC(=O)Nc3ccc(O)c(C(=O)O)c3)ccc12
- AC50 [1]: 6.31 µM [falling, full curve, poor fit]

SMILES: CCOc1ccc(NC(=O)CCc2c(C)nc3cc(-c4ccc(Cl)cc4)nn3c2C)cc1
- AC50 [1]: 0.02 µM [falling, full curve]

SMILES: Cc1ccc(CNC(=O)CS(=O)(=O)Cc2nc(-c3ccccc3C)oc2C)cc1
- AC50 [1]: 39.8 µM [falling, single point]

SMILES: Cc1cccc(Cn2c(SCc3ccc(C(=O)NC4CCCC4)cc3)nc3ccncc32)c1
- AC50 [1]: 0.0316 µM [falling, full curve, poor fit]

SMILES: CCN(CC)S(=O)(=O)c1ccc2c(c1)N(CC(=O)NCCCN1CCN(c3cc(Cl)ccc3C)CC1)C(=O)CO2
- AC50 [1]: 15.8 µM [falling, partial curve]

SMILES: O=C(Cn1nnc(-c2ccc(CN3CCOCC3)cc2)n1)Nc1nc(-c2ccccc2)cs1
- AC50 [1]: 39.8 µM [rising, single point] [measured here: IkB-luc green channel]

SMILES: CCOC(=O)C1CCC(CN(Cc2ccc(OC)cc2)S(=O)(=O)c2ccc(F)c(C(=O)Nc3c(C)cccc3C)c2)CC1 (centres undefined)
- AC50 [1]: 39.8 µM [falling, single point]

SMILES: CC(C)c1ccc(NC(=O)N2CCC(c3nc4ccccc4o3)CC2)cc1
- AC50 [1]: 20 µM [falling, partial curve]

SMILES: COc1ccc(N2CC(NC(=O)C3CCCC3)CC2=O)cc1OC (centres undefined)
- AC50 [1]: 3.16 µM [rising, full curve, poor fit] [measured here: IkB-luc green channel]

SMILES: COc1ccc(CCNC(=O)c2cn(C)c3ccc(S(=O)(=O)N(C)C)cc3c2=O)cc1OC
- AC50 [1]: 12.6 µM [rising, partial curve]

SMILES: CC(C)c1ccc(NC(=O)Cn2nnc(C(=O)NCc3ccc(Cl)cc3)c2N)cc1
- AC50 [1]: 0.0316 µM [falling, full curve, poor fit]

SMILES: CCNC(=O)c1c(NC(=O)c2nc(S(=O)(=O)CC)ncc2Cl)sc2c1CCCC2
- AC50 [1]: 3.98 µM [falling, full curve]

SMILES: COc1ccccc1NC(=O)c1sc2nc3c(cc2c1N)CN(Cc1ccccc1)CC3
- AC50 [1]: 31.6 µM [falling, single point]

SMILES: COc1ccccc1N(C(=O)c1snc(C(N)=O)c1N)C(C(=O)NC1CCCC1)c1ccco1 (centres undefined)
- AC50 [1]: 12.6 µM [falling, partial curve]

SMILES: CSc1nc(N)nc(SCCS(=O)(=O)c2ccc(Cl)cc2)c1C#N
- AC50 [1]: 3.16 µM [falling, full curve]

SMILES: O=C(CSc1nc(=O)[nH]c2c1CCCC2)NCc1ccc(F)cc1
- AC50 [1]: 12.6 µM [rising, partial curve]

SMILES: CCc1nc(C)cn1S(=O)(=O)c1ccc(Cl)c(Cl)c1OC
- AC50 [1]: 0.631 µM [rising, partial curve]

SMILES: C[C@@]12C[C@@H](O)[C@H]3[C@@H](CCC4=CC(=O)CC[C@]43C)[C@H]1CC[C@H]2C(=O)CO
- AC50 [1]: 158 nM [rising, full curve] [measured here: IkB-luc green channel] and 63.1 nM [rising, full curve] [measured here: IkB-luc green channel]

SMILES: COC(=O)c1cc(C)nc2c1c(=O)nc(SCc1ccccc1Cl)n2C1CC1
- AC50 (measured here: IkB-luc green channel): 39.8 µM [falling, partial curve]
- AC50 (measured here: control luc red channel): 39.8 µM [falling, single point]

SMILES: Cn1cnc(S(=O)(=O)N2CCC(C(=O)Nc3ccc(Cl)c(C(F)(F)F)c3)CC2)c1
- AC50 [1]: 20 µM [falling, single point]

SMILES: CCc1cccc(NS(=O)(=O)c2ccc3c(c2)N(CC(=O)OC)C(=O)CS3)c1
- AC50 [1]: 25.1 µM [falling, single point]

SMILES: C=CCn1c(NCc2cc(C)ccc2O)nc2ccccc21
- AC50 [1]: 25.1 µM [falling, single point]

SMILES: O=C(Cn1c(=O)n(Cc2ccc(C(=O)NCc3ccc4c(c3)OCO4)cc2)c(=O)c2ccccc21)Nc1ccccc1F
- AC50 [1]: 2.51 µM [falling, full curve, poor fit]

SMILES: Cc1cc(C)c2cc(C#N)c(SCC(=O)NCc3ccco3)nc2c1
- AC50 [1]: 31.6 µM [rising, partial curve] [measured here: IkB-luc green channel]

SMILES: COc1ccc(-n2ccn(CC(=O)Nc3ccc(C)cc3C)c(=O)c2=O)cc1
- AC50 [1]: 20 µM [falling, single point]

SMILES: CCCCOC(=O)C1C2C=C[C@]3(CN(CCCOC)C(=O)[C@H]13)O2 (some centres undefined)
- AC50 [1]: 0.794 µM [falling, full curve]

SMILES: CC(C)(C)c1ccc(C(=O)NC(Cc2c[nH]c3ccccc23)C(=O)OCC(=O)c2ccc(Br)cc2)cc1 (centres undefined)
- AC50 [1]: 39.8 µM [falling, partial curve, poor fit]

SMILES: O=C(Nc1cccc2c1CCCC2)N1CCOc2ccc(Cl)cc21
- AC50 [1]: 12.6 µM [falling, partial curve]

SMILES: Fc1ccc(N2CCN(c3ncnc4[nH]ncc34)CC2)cc1
- AC50 [1]: 0.501 µM [rising, full curve, poor fit]

SMILES: Cc1cccc(C(C)C)c1NC(=O)c1ccc2c(c1)CCCN2S(C)(=O)=O
- AC50 [1]: 20 µM [falling, single point]

SMILES: CCOC(=O)c1cc(-c2ccc(C)cc2)n(CC(=O)Nc2ccc(OC)cc2OC)c1C
- AC50 [1]: 12.6 µM [rising, partial curve]

From PubChem BioAssay AID445 (National Center for Advancing Translational Sciences (NCATS), 2006)
